{"source": "patent US11058113B1", "about": "“Fly and pupa insecticide” (Fly's Water, LLC, priority 2018, dated 2021)", "key": {"[1]": {"test_system": "Musca domestica Linnaeus adult houseflies", "test": "Needle inoculum (direct application) on adult flies", "type": "in vivo", "details": "75° F.", "method": "(§1) The Solution may be poured into a container having a spray nozzle or provided in an aerosol container. Alternatively, the Solution may be poured into an open container for direct contact. The Solution may be poured directly onto pupa or sprayed. Several experiments were performed on Musca domestica Linnaeus adult houseflies, pupa, and larva using varying dilutions, concentrations, and combinations of components, along with a dihydrogen monoxide control to compare the effectiveness and potency of each composition for quickly killing adult flies, pupa, and larva. […] During experimentation, a needle inoculum (syringe) having a modified composition for adult flies, a spray inoculum having the modified composition for adult flies, and a dihydrogen monoxide control for adult flies were conducted. References to “needle inoculum” refers to directly applying the modified composition to the adult flies."}, "[2]": {"test_system": "Musca domestica Linnaeus adult houseflies", "test": "Spray inoculum on adult flies", "type": "in vivo", "details": "75° F.", "method": "as §1"}}, "note": "At least one compound was matched to its structure with a doubt left.", "data": [{"smiles": "CCCCC(CC)COC(=O)CC(C(=O)OCC(CC)CCCC)S(=O)(=O)[O-].[Na+]", "note": "(stereo not shown) [docusate, docusate sodium]", "values": [{"measurement": "time within which the deaths occurred (minutes and seconds)", "setting": "[1]; 95% dilution with water", "value": "4 min and 0.967 min"}, {"measurement": "time within which the deaths occurred (minutes and seconds)", "setting": "[1]; 99% dilution with water", "value": "6 min and 0.767 min"}, {"measurement": "time within which the deaths occurred (minutes and seconds)", "setting": "[2]; 95% dilution with water", "value": "5 min and 0.183 min"}, {"measurement": "time within which the deaths occurred (minutes and seconds)", "setting": "[2]; 99% dilution with water", "value": "5 min and 0.617 min"}]}]}
